From patent US4609641 (dated 1986)

Assay: general procedure: solution-phase peptide synthesis; EDC/HBT; DPPA
Conditions: coupling step

**Q.** With “N^α -[4(S)-(tert-Butoxycarbonyl-L-phenylalanyl-L-phenylalanylamino)-3(S)-hydroxy-6-methylheptyl]-N^α -isobutoxycarbonyl-L-leucine benzylamide” as the substance, how does the “final HPLC purity” value read?
**A.** The value was 98%.
